Values from PubChem BioAssay AID1259254 (NCATS, 2017).

- Aim: 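Finding genes that stop cells copying their DNA twice in one cycle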 (primary screen)
- Cells: human HCT116 colorectal cancer cells
- Reagents: single siRNA against human genes
- Timing: 3 days
- Measured: 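Imaged Hoechst DNA stain sorts each cell into a cycle phase by DNA amount; per plate, G2 fraction set to 0% for non-targeting and 100% for GMNN siRNA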
- Reading the numbers: G2 robust z-score and G2 cells, % of GMNN control: higher = more G2 cells, more excess DNA replication
- Hit rule: 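Active siRNAs have a G2 robust z of 5 or more median absolute deviations over the median, which in these data means about 38% or higher of GMNN control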
The deposit covers about 59,000 reagents; shown is an unselected part. About 1,550 of all reagents (2.6%) count as active. 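G2 share is only a proxy for re-replication; each gene was hit by three separate siRNAs, and active genes were retested.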 The numbers tell different reagents against one gene apart. Not all columns of the deposit are shown. Reagent sequences are not shown. The record does not give: the amount of reagent.

SMARCD1 #1: G2 robust z-score = 3.1; G2 cells, % of GMNN control = 24.8; Call = inactive
SMARCD1 #2: G2 robust z-score = 0.343; G2 cells, % of GMNN control = 5.38; Call = inactive
SMARCD1 #3: G2 robust z-score = 3.12; G2 cells, % of GMNN control = 24.9; Call = inactive
TRIM54 #1: G2 robust z-score = -0.143; G2 cells, % of GMNN control = 1.96; Call = inactive
TRIM54 #2: G2 robust z-score = -0.944; G2 cells, % of GMNN control = -3.67; Call = inactive
TRIM54 #3: G2 robust z-score = 0.714; G2 cells, % of GMNN control = 7.99; Call = inactive
IRAG2 #1: G2 robust z-score = 0.0603; G2 cells, % of GMNN control = 3.39; Call = inactive
IRAG2 #2: G2 robust z-score = -0.361; G2 cells, % of GMNN control = 0.429; Call = inactive
IRAG2 #3: G2 robust z-score = 4.12; G2 cells, % of GMNN control = 32; Call = inactive
IRAG2 #4: G2 robust z-score = -0.856; G2 cells, % of GMNN control = -3.06; Call = inactive
IRAG2 #5: G2 robust z-score = 0.23; G2 cells, % of GMNN control = 4.59; Call = inactive
IRAG2 #6: G2 robust z-score = -0.551; G2 cells, % of GMNN control = -0.907; Call = inactive

Records above whose target name begins with I or i (6):
IRAG2 #1: G2 robust z-score = 0.0603; G2 cells, % of GMNN control = 3.39; Call = inactive
IRAG2 #2: G2 robust z-score = -0.361; G2 cells, % of GMNN control = 0.429; Call = inactive
IRAG2 #3: G2 robust z-score = 4.12; G2 cells, % of GMNN control = 32; Call = inactive
IRAG2 #4: G2 robust z-score = -0.856; G2 cells, % of GMNN control = -3.06; Call = inactive
IRAG2 #5: G2 robust z-score = 0.23; G2 cells, % of GMNN control = 4.59; Call = inactive
IRAG2 #6: G2 robust z-score = -0.551; G2 cells, % of GMNN control = -0.907; Call = inactive
